Earlier results in patent US20240252499A1, “Treatment of uremic pruritus” (CymaBay Therapeutics, Inc., priority 2023, published 2024).
At least one compound was matched to its structure with a doubt left.

Tested on: IL-31
Details: humanized liver murine model; cited from earlier work

**Q.** Which “serum levels of human IL-31” value does the source give for CC[C@H]1[C@@H](O)[C@@H]2[C@H](CC[C@]3(C)[C@@H]([C@H](C)CCC(=O)O)CC[C@@H]23)[C@@]2(C)CC[C@@H](O)C[C@@H]12 [obeticholic acid] here?
**A.** increased
